Data as given in the supplement of paper PMC12067093, “Discovery and optimisation of a covalent ligand for TRIM25 and its application to targeted protein ubiquitination” (Chemical Science, 2025).
The other results are listed elsewhere or left out.

Each target was assayed with Cc1cc(ccc1-c1ccccc1)C(=O)N1CCCN(CC1)C(=O)CCl [compound 10] (assay: probe-labelled cysteine peptide fold change vs DMSO (competition) (log2 fold change); higher = less target engagement (more negative = stronger competition)). Settings: 10 µM; THP-1; incubation time: 4 h.
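Note: competitive profiling in live THP-1 cells: cysteine peptides tagged with an iodoacetamide desthiobiotin (IA-DTB) probe, intensity after compound treatment relative to DMSO-treated cells.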

Target | probe-labelled cysteine peptide fold change
WDR6_Q9NNW5_688_ALGGCTRPHVILR (UniProt Q9NNW5) | -0.00601
WDFY4_Q6ZS81_545_VSTPGVQDPERELTCVMLR (UniProt Q6ZS81) | -0.087
XPNPEP1_Q9NQW7_582+592_ECDWLNNYHLTCR (UniProt Q9NQW7) | 0.175
WDR3_Q9UNX4_296+307_ILACHGTDSVLELFCILSK (UniProt Q9UNX4) | -0.125
WDHD1_O75717_598_GTGFDGDQCLGVQLLELGK (UniProt O75717) | -0.0321
XPNPEP1_Q9NQW7_443_ECFTYVLK (UniProt Q9NQW7) | 0.0722
XAB2_Q9HCS7_86+98_CVTDPAYEDVNNCHER (UniProt Q9HCS7) | -0.113
WDFY4_Q6ZS81_2226_TEDFVSCIENYR (UniProt Q6ZS81) | -0.17
WDR81_Q562E7_130_LSYPLGGGLPFEDGSCGPETLTR (UniProt Q562E7) | -0.0271
WDR55_Q9H6Y2_191_LLLTASGDGCLGIFNIK (UniProt Q9H6Y2) | 0.0904
WDR76_Q9H967_562_FQAMWDPKQEDCVIVGSMAHPR (UniProt Q9H967) | -0.194
XIAP_P98170_227_HFPNCFFVLGR (UniProt P98170) | 0.136
WDFY4_Q6ZS81_1763_HHQEEVLQAGLCTEGALLLLEMLK (UniProt Q6ZS81) | 0.302
XPC_Q01831_224_NNICSQPDLHAIGLSIIPAR (UniProt Q01831) | -0.112
WDFY4_Q6ZS81_878_QVMCEAGLLGTLMASCHR (UniProt Q6ZS81) | 0.0987
WDR91_A4D1P6_246_LGDSELAMVCSQR (UniProt A4D1P6) | -0.309
WDR76_Q9H967_562_QEDCVIVGSMAHPR (UniProt Q9H967) | -0.0209
WDR3_Q9UNX4_183_WWDLDTQHCFK (UniProt Q9UNX4) | 0.0656
WDR81_Q562E7_765_VQPAVPLQCLLHR (UniProt Q562E7) | -0.00443
WDHD1_O75717_773_MLALSCK (UniProt O75717) | 0.122

Target | probe-labelled cysteine peptide fold change
WASHC5_Q12768_521_TVQLIQALEEVQEFHQLESNLQVCQFLADTRK (UniProt Q12768) | 0.198
WDHD1_O75717_277+285_GYAICGLAWHPTCGR (UniProt O75717) | 0.0322
XPC_Q01831_814_KLDIDCVQAITGFDFHGGYSHPVTDGYIVCEEFK (UniProt Q01831) | -0.21
WDR82_Q6UXN9_141_SPNCQGLMHLQGK (UniProt Q6UXN9) | 0.107
XPNPEP1_Q9NQW7_309_CCMPYTPICIAK (UniProt Q9NQW7) | 0.00998
WDR18_Q9BV38_384_LGLHQQGSEPSYLDRTEQLQAVLCSTMEK (UniProt Q9BV38) | 0.00371
WEE1_P30291_263_TYWNDSCGEDMEASDYELEDETRPAKR (UniProt P30291) | -0.412
WRNIP1_Q96S55_39_CLLLHPAGHAEPAAGSHR (UniProt Q96S55) | 0.0993
WDR92_Q96MX6_337+339_GLCVCSSFDQTVR (UniProt Q96MX6) | -0.136
WDR6_Q9NNW5_830_LACHVMHLSSHR (UniProt Q9NNW5) | 0.144
WDR4_P57081_227_QLHCCHLASLQELVDPQAPQK (UniProt P57081) | 0.203
WDR46_O15213_172_ICQADIVEAVDIASAAK (UniProt O15213) | 0.083
WDR91_A4D1P6_351_ELFSTTTSQCAEK (UniProt A4D1P6) | -0.291
WDR53_Q7Z5U6_99_DSLDHFHVNEEEINCLSLNQTENLLASADDSGAIK (UniProt Q7Z5U6) | -0.617
WDR44_Q5JSH3_701_LITAANFCQNGK (UniProt Q5JSH3) | -0.0485
WDR1_O75083_170_LATGSDDNCAAFFEGPPFK (UniProt O75083) | 0.0581
XPNPEP3_Q9NQH7_492_IEDDVVVTQDSPLILSADCPK (UniProt Q9NQH7) | -0.204
XPO1_O14980_34_LDINLLDNVVNCLYHGEGAQQR (UniProt O14980) | 0.06
WDR61_Q9GZS3_266_TCVHTFFDHQDQVWGVK (UniProt Q9GZS3) | -0.0412
WDR91_A4D1P6_512_ILSLACSPNGASFVCSAAAPSLTSQVDFSAPDIGSK (UniProt A4D1P6) | 0.0949

Same assay, conditions: 50 µM; THP-1; incubation time: 4 h

Target | probe-labelled cysteine peptide fold change
WDR6_Q9NNW5_688_ALGGCTRPHVILR (UniProt Q9NNW5) | -0.406
WDFY4_Q6ZS81_545_VSTPGVQDPERELTCVMLR (UniProt Q6ZS81) | -0.218
XPNPEP1_Q9NQW7_582+592_ECDWLNNYHLTCR (UniProt Q9NQW7) | 0.0551
WDR3_Q9UNX4_296+307_ILACHGTDSVLELFCILSK (UniProt Q9UNX4) | 0.0981
WDHD1_O75717_598_GTGFDGDQCLGVQLLELGK (UniProt O75717) | 0.0617
XPNPEP1_Q9NQW7_443_ECFTYVLK (UniProt Q9NQW7) | 0.0698
XAB2_Q9HCS7_86+98_CVTDPAYEDVNNCHER (UniProt Q9HCS7) | -0.69
WDFY4_Q6ZS81_2226_TEDFVSCIENYR (UniProt Q6ZS81) | -0.159
WDR81_Q562E7_130_LSYPLGGGLPFEDGSCGPETLTR (UniProt Q562E7) | -0.117
WDR55_Q9H6Y2_191_LLLTASGDGCLGIFNIK (UniProt Q9H6Y2) | -0.0599
WDR76_Q9H967_562_FQAMWDPKQEDCVIVGSMAHPR (UniProt Q9H967) | -0.109
XIAP_P98170_227_HFPNCFFVLGR (UniProt P98170) | -0.0172
WDFY4_Q6ZS81_1763_HHQEEVLQAGLCTEGALLLLEMLK (UniProt Q6ZS81) | 0.477
XPC_Q01831_224_NNICSQPDLHAIGLSIIPAR (UniProt Q01831) | 0.0383
WDFY4_Q6ZS81_878_QVMCEAGLLGTLMASCHR (UniProt Q6ZS81) | -0.0126
WDR91_A4D1P6_246_LGDSELAMVCSQR (UniProt A4D1P6) | -0.425
WDR76_Q9H967_562_QEDCVIVGSMAHPR (UniProt Q9H967) | 0.371
WDR3_Q9UNX4_183_WWDLDTQHCFK (UniProt Q9UNX4) | 0.271
WDR81_Q562E7_765_VQPAVPLQCLLHR (UniProt Q562E7) | -0.0254
WDHD1_O75717_773_MLALSCK (UniProt O75717) | -0.0756

Target | probe-labelled cysteine peptide fold change
WASHC5_Q12768_521_TVQLIQALEEVQEFHQLESNLQVCQFLADTRK (UniProt Q12768) | 0.314
WDHD1_O75717_277+285_GYAICGLAWHPTCGR (UniProt O75717) | 0.203
XPC_Q01831_814_KLDIDCVQAITGFDFHGGYSHPVTDGYIVCEEFK (UniProt Q01831) | -0.394
WDR82_Q6UXN9_141_SPNCQGLMHLQGK (UniProt Q6UXN9) | 0.319
XPNPEP1_Q9NQW7_309_CCMPYTPICIAK (UniProt Q9NQW7) | -0.216
WDR18_Q9BV38_384_LGLHQQGSEPSYLDRTEQLQAVLCSTMEK (UniProt Q9BV38) | -0.169
WEE1_P30291_263_TYWNDSCGEDMEASDYELEDETRPAKR (UniProt P30291) | -0.423
WRNIP1_Q96S55_39_CLLLHPAGHAEPAAGSHR (UniProt Q96S55) | 0.3
WDR92_Q96MX6_337+339_GLCVCSSFDQTVR (UniProt Q96MX6) | -0.244
WDR6_Q9NNW5_830_LACHVMHLSSHR (UniProt Q9NNW5) | 0.0864
WDR4_P57081_227_QLHCCHLASLQELVDPQAPQK (UniProt P57081) | 0.292
WDR46_O15213_172_ICQADIVEAVDIASAAK (UniProt O15213) | 0.0398
WDR91_A4D1P6_351_ELFSTTTSQCAEK (UniProt A4D1P6) | -0.214
WDR53_Q7Z5U6_99_DSLDHFHVNEEEINCLSLNQTENLLASADDSGAIK (UniProt Q7Z5U6) | -0.182
WDR44_Q5JSH3_701_LITAANFCQNGK (UniProt Q5JSH3) | 0.165
WDR1_O75083_170_LATGSDDNCAAFFEGPPFK (UniProt O75083) | 0.235
XPNPEP3_Q9NQH7_492_IEDDVVVTQDSPLILSADCPK (UniProt Q9NQH7) | 0.104
XPO1_O14980_34_LDINLLDNVVNCLYHGEGAQQR (UniProt O14980) | 0.0188
WDR61_Q9GZS3_266_TCVHTFFDHQDQVWGVK (UniProt Q9GZS3) | -0.0496
WDR91_A4D1P6_512_ILSLACSPNGASFVCSAAAPSLTSQVDFSAPDIGSK (UniProt A4D1P6) | 0.122
